Reference: patent US9188584B2, “Capture agents and related compositions, methods and systems” (CALIFORNIA INSTITUTE OF TECHNOLOGY, priority 2008, dated 2015)
At least one compound was matched to its structure with a doubt left.

Amino acid sequences for entries named in this document (tags omitted).
UniProt P00921, whole entry: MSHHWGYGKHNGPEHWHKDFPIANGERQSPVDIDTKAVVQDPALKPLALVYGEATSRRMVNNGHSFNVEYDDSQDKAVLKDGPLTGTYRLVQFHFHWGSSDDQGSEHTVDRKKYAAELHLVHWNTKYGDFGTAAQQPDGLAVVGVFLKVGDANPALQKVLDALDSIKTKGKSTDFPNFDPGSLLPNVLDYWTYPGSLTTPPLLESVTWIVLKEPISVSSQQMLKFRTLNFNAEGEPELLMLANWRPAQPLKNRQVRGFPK

Legend:
[1] = molecular target: T1, bCAII (Bos taurus, UniProt P00921); assay: KD determination by fluorescence polarization; assay type: binding, bovine; conditions: 6 μM fluoresceinated anchor ligand, 0.2 μM to 800 μM bCAII, PBS pH 7.4 + 3% DMSO, 25° C.; read-out: affinity for bCAII (KD by fluorescence polarization)
T1 construct: The bCAII (C2522), from bovine erythrocytes, lyophilized powder; purchased Sigma-Aldrich C2522; host or cells: bovine erythrocytes

[2] = molecular target: T1, bCAII; assay: KD determination by surface plasmon resonance (SPR), immobilized bCAII; parameters: species or system bovine; conditions: biligand 2 nM to 5 μM, 1:1 binding fit; read-out: KD / binding affinity to bCAII by SPR
Text: KD determination by surface plasmon resonance (SPR).

SMILES	Kd [1]	Kd [2]
C#CC[C@@H](NC(=O)[C@@H](CCCCN)NC(=O)[C@@H](Cc1ccccc1)NC(=O)[C@@H](Cc1c[nH]c2ccccc12)NC(=O)[C@@H](CC(C)C)NC(=O)[C@@H](CCCCN)NC(=O)[C@@H](CC(C)C)NC(=S)Nc1ccc2c(c1)C(=O)OC21c2ccc(O)cc2Oc2cc(O)ccc21)C(N)=O [lklwfk-(D-Pra)]	500 µM	
CC[C@@H](C)[C@@H](NC(=O)[C@@H](Cc1c[nH]c2ccccc12)NC(=O)[C@H](NC(=O)[C@@H](CCCCN)NC(=O)[C@H](CCCCn1cc(C[C@@H](NC(=O)[C@@H](CCCCN)NC(=O)[C@@H](Cc2ccccc2)NC(=O)[C@@H](Cc2c[nH]c3ccccc23)NC(=O)[C@@H](CC(C)C)NC(=O)[C@@H](CCCCN)NC(=O)[C@H](N)CC(C)C)C(=O)N2CCCCC2)nn1)NC(C)=O)[C@H](C)CC)C(=O)NCC(N)=O [lklwfk-Tz1-kiwiG]		11 µM
